# These are yes or no findings as the source states them, for the method shown. Binding seen in cells or lysates may run through a third protein. Some binding calls cover weakened binding; strength is not graded here.
# Sequences of proteins named here, by UniProt entry; tags and fusion partners are left off.
# UniProt O14980: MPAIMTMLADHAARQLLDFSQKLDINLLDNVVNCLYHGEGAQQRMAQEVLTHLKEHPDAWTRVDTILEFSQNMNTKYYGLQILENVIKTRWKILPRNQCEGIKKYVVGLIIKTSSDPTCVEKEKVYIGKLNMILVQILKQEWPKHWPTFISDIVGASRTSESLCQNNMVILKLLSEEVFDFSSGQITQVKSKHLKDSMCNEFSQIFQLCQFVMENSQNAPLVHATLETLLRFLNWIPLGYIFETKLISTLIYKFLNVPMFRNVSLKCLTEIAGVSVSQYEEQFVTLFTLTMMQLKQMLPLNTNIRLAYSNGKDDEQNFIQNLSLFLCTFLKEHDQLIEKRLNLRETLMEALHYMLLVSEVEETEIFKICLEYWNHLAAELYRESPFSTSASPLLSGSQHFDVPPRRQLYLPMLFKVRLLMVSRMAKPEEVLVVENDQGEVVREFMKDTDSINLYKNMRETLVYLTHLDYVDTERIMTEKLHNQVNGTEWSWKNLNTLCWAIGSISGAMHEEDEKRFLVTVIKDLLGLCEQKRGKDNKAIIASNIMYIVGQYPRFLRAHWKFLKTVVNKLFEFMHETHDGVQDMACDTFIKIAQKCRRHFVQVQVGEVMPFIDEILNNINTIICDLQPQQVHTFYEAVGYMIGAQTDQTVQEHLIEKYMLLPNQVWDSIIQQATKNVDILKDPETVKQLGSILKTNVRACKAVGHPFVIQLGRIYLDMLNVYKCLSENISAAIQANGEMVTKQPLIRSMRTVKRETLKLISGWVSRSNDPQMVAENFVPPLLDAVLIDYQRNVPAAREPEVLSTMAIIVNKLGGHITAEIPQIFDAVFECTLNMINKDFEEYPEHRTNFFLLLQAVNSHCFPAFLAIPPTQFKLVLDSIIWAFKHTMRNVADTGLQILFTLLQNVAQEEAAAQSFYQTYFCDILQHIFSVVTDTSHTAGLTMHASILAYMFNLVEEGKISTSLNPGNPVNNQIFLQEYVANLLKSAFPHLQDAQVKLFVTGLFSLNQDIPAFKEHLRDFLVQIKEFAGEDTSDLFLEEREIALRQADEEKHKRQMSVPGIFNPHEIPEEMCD
# UniProt Q9HAV4: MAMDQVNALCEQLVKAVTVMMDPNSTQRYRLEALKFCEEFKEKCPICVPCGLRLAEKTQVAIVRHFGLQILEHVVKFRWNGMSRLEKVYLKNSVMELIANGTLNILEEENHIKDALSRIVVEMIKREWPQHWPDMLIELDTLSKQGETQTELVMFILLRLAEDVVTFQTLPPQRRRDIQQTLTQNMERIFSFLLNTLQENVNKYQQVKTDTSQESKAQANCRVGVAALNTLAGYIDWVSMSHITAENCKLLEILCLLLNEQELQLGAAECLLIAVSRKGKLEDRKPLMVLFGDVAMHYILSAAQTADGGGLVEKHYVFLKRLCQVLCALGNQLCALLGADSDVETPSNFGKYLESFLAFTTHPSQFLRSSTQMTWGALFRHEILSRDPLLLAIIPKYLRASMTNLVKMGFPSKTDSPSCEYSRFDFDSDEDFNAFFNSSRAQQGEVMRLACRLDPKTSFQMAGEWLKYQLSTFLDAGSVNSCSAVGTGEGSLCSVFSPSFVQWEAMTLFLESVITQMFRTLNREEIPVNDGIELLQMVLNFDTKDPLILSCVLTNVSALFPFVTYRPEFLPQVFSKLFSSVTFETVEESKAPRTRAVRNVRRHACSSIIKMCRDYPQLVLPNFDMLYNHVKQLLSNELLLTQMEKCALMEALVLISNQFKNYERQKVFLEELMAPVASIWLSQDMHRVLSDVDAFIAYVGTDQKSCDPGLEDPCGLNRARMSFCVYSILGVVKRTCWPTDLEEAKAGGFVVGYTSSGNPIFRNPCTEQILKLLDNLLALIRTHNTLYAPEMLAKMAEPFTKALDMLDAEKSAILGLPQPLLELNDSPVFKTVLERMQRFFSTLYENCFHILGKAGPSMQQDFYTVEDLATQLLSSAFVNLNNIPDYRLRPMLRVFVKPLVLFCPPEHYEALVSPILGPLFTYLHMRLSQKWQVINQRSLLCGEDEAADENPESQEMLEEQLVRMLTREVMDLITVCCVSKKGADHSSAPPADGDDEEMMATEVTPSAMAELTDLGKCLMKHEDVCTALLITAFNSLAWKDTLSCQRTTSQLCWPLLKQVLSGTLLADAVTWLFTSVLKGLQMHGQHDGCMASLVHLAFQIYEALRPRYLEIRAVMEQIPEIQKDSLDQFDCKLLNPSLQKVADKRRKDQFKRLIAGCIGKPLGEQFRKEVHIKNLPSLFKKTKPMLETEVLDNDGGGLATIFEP
# UniProt Q9H814: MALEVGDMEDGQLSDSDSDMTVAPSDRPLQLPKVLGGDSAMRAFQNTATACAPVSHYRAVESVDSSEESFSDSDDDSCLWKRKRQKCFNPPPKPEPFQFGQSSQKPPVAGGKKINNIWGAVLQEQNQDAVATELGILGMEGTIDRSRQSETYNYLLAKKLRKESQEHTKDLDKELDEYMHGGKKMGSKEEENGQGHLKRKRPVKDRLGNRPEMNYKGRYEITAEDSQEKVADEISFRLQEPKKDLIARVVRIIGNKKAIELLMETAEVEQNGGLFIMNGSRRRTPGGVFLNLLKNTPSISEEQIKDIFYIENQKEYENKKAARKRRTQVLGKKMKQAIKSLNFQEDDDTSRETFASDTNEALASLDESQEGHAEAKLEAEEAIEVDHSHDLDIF
# T1: Regulator of Telomere ELongation helicase 1 (RTEL1), endogenous in HeLa cells (human (endogenous in HeLa)) (UniProt Q9NZ71)
# T1 sequence: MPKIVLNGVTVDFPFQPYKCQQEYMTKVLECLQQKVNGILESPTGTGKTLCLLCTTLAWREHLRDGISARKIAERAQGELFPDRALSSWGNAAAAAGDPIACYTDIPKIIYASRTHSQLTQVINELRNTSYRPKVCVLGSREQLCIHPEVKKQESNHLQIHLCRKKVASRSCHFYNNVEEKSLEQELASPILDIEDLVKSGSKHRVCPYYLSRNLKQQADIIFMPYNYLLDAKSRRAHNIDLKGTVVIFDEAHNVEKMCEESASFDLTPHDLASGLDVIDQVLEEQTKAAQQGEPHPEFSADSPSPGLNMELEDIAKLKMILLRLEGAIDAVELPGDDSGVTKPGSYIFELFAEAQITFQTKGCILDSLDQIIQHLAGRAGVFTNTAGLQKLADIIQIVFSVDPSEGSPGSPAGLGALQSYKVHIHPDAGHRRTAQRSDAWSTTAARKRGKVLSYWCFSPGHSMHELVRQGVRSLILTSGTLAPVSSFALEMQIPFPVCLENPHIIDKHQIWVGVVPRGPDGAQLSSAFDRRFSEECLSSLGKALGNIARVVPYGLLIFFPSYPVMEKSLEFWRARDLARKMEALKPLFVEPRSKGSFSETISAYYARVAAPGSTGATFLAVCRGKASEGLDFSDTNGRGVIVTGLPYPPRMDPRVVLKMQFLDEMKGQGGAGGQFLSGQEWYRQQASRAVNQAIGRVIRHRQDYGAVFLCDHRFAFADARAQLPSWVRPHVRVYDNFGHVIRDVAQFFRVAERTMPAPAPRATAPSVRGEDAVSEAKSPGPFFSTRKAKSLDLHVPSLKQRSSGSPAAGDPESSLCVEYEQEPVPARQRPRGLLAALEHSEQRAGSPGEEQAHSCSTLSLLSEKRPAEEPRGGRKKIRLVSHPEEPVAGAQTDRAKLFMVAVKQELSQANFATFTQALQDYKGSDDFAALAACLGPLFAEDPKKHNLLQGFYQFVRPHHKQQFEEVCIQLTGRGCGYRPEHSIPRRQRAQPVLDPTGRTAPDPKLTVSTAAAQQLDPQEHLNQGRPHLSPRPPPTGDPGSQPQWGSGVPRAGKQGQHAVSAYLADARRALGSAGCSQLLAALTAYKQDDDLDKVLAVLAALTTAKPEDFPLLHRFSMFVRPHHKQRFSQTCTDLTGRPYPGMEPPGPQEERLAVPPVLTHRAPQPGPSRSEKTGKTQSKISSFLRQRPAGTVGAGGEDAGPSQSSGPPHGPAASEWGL
# T2: XPOT (human (endogenous in 293T and HeLa)) (UniProt O43592)
# T2 sequence: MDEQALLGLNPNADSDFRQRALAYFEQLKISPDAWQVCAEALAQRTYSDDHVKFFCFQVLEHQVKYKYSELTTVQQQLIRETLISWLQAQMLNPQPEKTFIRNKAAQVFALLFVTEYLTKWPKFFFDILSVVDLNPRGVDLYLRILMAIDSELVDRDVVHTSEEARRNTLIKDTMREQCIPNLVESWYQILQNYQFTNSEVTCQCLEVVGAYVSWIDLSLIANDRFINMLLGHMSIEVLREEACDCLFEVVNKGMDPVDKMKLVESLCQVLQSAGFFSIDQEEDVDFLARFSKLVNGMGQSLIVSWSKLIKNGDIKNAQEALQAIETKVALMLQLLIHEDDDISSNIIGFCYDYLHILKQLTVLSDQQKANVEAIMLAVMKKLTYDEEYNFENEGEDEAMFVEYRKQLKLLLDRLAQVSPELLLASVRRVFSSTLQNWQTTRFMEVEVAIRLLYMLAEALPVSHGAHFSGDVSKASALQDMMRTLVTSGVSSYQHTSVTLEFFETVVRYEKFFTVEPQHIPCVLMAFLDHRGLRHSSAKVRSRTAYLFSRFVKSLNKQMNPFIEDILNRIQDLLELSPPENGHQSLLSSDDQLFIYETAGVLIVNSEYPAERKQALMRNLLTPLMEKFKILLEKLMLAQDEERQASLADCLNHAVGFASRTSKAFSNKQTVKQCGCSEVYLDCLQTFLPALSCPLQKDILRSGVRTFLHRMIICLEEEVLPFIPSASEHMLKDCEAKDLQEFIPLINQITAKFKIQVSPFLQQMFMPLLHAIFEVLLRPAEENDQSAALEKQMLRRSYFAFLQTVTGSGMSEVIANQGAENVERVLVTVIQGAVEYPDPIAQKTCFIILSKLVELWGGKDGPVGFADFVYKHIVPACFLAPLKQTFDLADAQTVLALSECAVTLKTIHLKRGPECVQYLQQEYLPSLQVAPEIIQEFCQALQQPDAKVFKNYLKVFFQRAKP
# How the values were obtained:
# [1] = molecular target: XPO1 (CRM1) (human (endogenous in 293T and HeLa)) (UniProt O14980); test: co-IP; antibodies against XPO1, blot for PHAX (Supplementary Figure S1b); cell line not stated
# [2] = molecular target: T1, Regulator of Telomere ELongation helicase 1 (RTEL1), endogenous in HeLa cells (human (endogenous in HeLa)); test: co-IP; anti-RTEL1 antibodies, soluble lysate of unperturbed HeLa cells (endogenous levels of all proteins); NP40 lysis buffer (50 mM Tris-HCl pH 6.8, 150 mM NaCl, 1% NP-40); western blot
# [3] = molecular target: XPO1 (CRM1) (human (endogenous in 293T and HeLa)) (UniProt O14980); test: co-IP; antibodies against XPO1, XPO5 and XPOT, soluble extracts of 293T overexpressing RTEL1_(iso6) treated with RNase A (0.1 ug/ul, 30 min, 37°C); NP40 lysis buffer; immunoprecipitates analysed with anti-RTEL1 antibody
# [4] = molecular target: T2, XPOT (human (endogenous in 293T and HeLa)); test: as above
# [5] = molecular target: XPO5 (human (endogenous in 293T and HeLa)) (UniProt Q9HAV4); test: as above
molecule,measurement,setting,value
phosphorylated adaptor for RNA export (PHAX) (from UniProt Q9H814 1-394),binding,[1],binds
XPO1 (CRM1) (from UniProt O14980 1-1071),binding,[2],binds
XPO5 (from UniProt Q9HAV4 1-1204),binding,[2],binds
"XPOT (protein, UniProt O43592 1-962) MDEQALLGLNPNADSDFRQRALAYFEQLKISPDAWQVCAEALAQRTYSDDHVKFFCFQVLEHQVKYKYSELTTVQQQLIRETLISWLQAQMLNPQPEKTFIRNKAAQVFALLFVTEYLTKWPKFFFDILSVVDLNPRGVDLYLRILMAIDSELVDRDVVHTSEEARRNTLIKDTMREQCIPNLVESWYQILQNYQFTNSEVTCQCLEVVGAYVSWIDLSLIANDRFINMLLGHMSIEVLREEACDCLFEVVNKGMDPVDKMKLVESLCQVLQSAGFFSIDQEEDVDFLARFSKLVNGMGQSLIVSWSKLIKNGDIKNAQEALQAIETKVALMLQLLIHEDDDISSNIIGFCYDYLHILKQLTVLSDQQKANVEAIMLAVMKKLTYDEEYNFENEGEDEAMFVEYRKQLKLLLDRLAQVSPELLLASVRRVFSSTLQNWQTTRFMEVEVAIRLLYMLAEALPVSHGAHFSGDVSKASALQDMMRTLVTSGVSSYQHTSVTLEFFETVVRYEKFFTVEPQHIPCVLMAFLDHRGLRHSSAKVRSRTAYLFSRFVKSLNKQMNPFIEDILNRIQDLLELSPPENGHQSLLSSDDQLFIYETAGVLIVNSEYPAERKQALMRNLLTPLMEKFKILLEKLMLAQDEERQASLADCLNHAVGFASRTSKAFSNKQTVKQCGCSEVYLDCLQTFLPALSCPLQKDILRSGVRTFLHRMIICLEEEVLPFIPSASEHMLKDCEAKDLQEFIPLINQITAKFKIQVSPFLQQMFMPLLHAIFEVLLRPAEENDQSAALEKQMLRRSYFAFLQTVTGSGMSEVIANQGAENVERVLVTVIQGAVEYPDPIAQKTCFIILSKLVELWGGKDGPVGFADFVYKHIVPACFLAPLKQTFDLADAQTVLALSECAVTLKTIHLKRGPECVQYLQQEYLPSLQVAPEIIQEFCQALQQPDAKVFKNYLKVFFQRAKP",binding,[2],binds
"Regulator of Telomere ELongation helicase 1 (RTEL1), isoform 6, stably overexpressed in 293T cells (protein, UniProt Q9NZ71-6 1-1300) MPKIVLNGVTVDFPFQPYKCQQEYMTKVLECLQQKVNGILESPTGTGKTLCLLCTTLAWREHLRDGISARKIAERAQGELFPDRALSSWGNAAAAAGDPIACYTDIPKIIYASRTHSQLTQVINELRNTSYRPKVCVLGSREQLCIHPEVKKQESNHLQIHLCRKKVASRSCHFYNNVEEKSLEQELASPILDIEDLVKSGSKHRVCPYYLSRNLKQQADIIFMPYNYLLDAKSRRAHNIDLKGTVVIFDEAHNVEKMCEESASFDLTPHDLASGLDVIDQVLEEQTKAAQQGEPHPEFSADSPSPGLNMELEDIAKLKMILLRLEGAIDAVELPGDDSGVTKPGSYIFELFAEAQITFQTKGCILDSLDQIIQHLAGRAGVFTNTAGLQKLADIIQIVFSVDPSEGSPGSPAGLGALQSYKVHIHPDAGHRRTAQRSDAWSTTAARKRGKVLSYWCFSPGHSMHELVRQGVRSLILTSGTLAPVSSFALEMQIPFPVCLENPHIIDKHQIWVGVVPRGPDGAQLSSAFDRRFSEECLSSLGKALGNIARVVPYGLLIFFPSYPVMEKSLEFWRARDLARKMEALKPLFVEPRSKGSFSETISAYYARVAAPGSTGATFLAVCRGKASEGLDFSDTNGRGVIVTGLPYPPRMDPRVVLKMQFLDEMKGQGGAGGQFLSGQEWYRQQASRAVNQAIGRVIRHRQDYGAVFLCDHRFAFADARAQLPSWVRPHVRVYDNFGHVIRDVAQFFRVAERTMPAPAPRATAPSVRGEDAVSEAKSPGPFFSTRKAKSLDLHVPSLKQRSSGSPAAGDPESSLCVEYEQEPVPARQRPRGLLAALEHSEQRAGSPGEEQAHSCSTLSLLSEKRPAEEPRGGRKKIRLVSHPEEPVAGAQTDRAKLFMVAVKQELSQANFATFTQALQDYKGSDDFAALAACLGPLFAEDPKKHNLLQGFYQFVRPHHKQQFEEVCIQLTGRGCGYRPEHSIPRRQRAQPVLDPTGRTAPDPKLTVSTAAAQQLDPQEHLNQGRPHLSPRPPPTGDPGSQPQWGSGVPRAGKQGQHAVSAYLADARRALGSAGCSQLLAALTAYKQDDDLDKVLAVLAALTTAKPEDFPLLHRFSMFVRPHHKQRFSQTCTDLTGRPYPGMEPPGPQEERLAVPPVLTHRAPQPGPSRSEKTGKTQSKISSFLRQRPAGTVGAGGEDAGPSQSSGPPHGPAASEWGEPHGRDIAGQQATGAPGGPLSAGCVCQGCGAEDVVPFQCPACDFQRCQACWQRHLQASRMCPACHTASRKQSVMQVFWPEPQ",binding,[3],binds
same,binding,[4],binds
same,binding,[5],binds
